Assay results from paper PMC11224403, “Des-acyl ghrelin reduces alcohol intake and alcohol-induced reward in rodents” (Translational Psychiatry, 2024).

The chains behind the UniProt entries cited, without tags or fusion partners. Where a name states a change or a piece, a line headed by the entry shows the natural chain unless it says otherwise.
UniProt Q9UBU3: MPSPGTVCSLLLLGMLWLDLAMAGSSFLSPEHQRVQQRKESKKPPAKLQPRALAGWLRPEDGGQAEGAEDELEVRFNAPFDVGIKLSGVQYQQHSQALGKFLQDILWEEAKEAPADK

Assay: Serum DAG by ELISA and correlation with alcohol intake
Design: species or system rats
Details: n = 12 low, endogenous level, ELISA

## des-acyl ghrelin (GSSFLSPEHQRVQQRKESKKPPAKLQPR; Ghrelin-28 non-acylated; UniProt Q9UBU3 24-51, looked up) [DAG, non-octanoylated form of ghrelin; purchased from Tocris (printed Tocrise Bioscience), dissolved in 0.9% NaCl]
Female rats, n = 11 high
  serum DAG, high vs low alcohol-consuming: tended to display higher amounts of serum DAG (t21 = 1.64; P = 0.0585)
Male rats, n = 12 high
  serum DAG, low vs high alcohol-consuming: no difference in serum des-acyl-ghrelin (DAG) between male rats consuming low (n = 12) or high (n = 12) amounts of alcohol (t22 = 0.11; P = 0.9137)
